Data as given in PubChem BioAssay AID1259308 (NCATS, 2017).
The deposit covers about 59,000 reagents; shown is a random part of them. About 1,510 of them (2.6%) count as active. 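Calls use total luciferase alone and ignore viability, so some active siRNAs may act by altering cell number.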 Not all columns of the deposit are shown.

Test: 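Knock-downs that increase output of a recombinant reporter protein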 (primary screen)
Cell system: human HEK293 embryonic kidney cells stably expressing firefly luciferase (HEK-CMV-Luc2-Hygro)
Reagents: single siRNA against human genes, 0.8 pmol siRNA per well
Timing: 72 h
Read-out: 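Luciferase light (ONE-Glo) measured on one replicate plate set and viability (CellTiter-Glo) on the other, scaled to a negative control siRNA, with robust z-scores and luciferase per cell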
Reading the numbers: total luciferase, z-score: higher = more reporter protein produced
Call rule: 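Active when the median/MAD z-score for overall luciferase is greater than 3; a gene was taken forward for validation with new siRNAs if at least two of its three siRNAs passed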
Calls: active = raised luciferase; inactive = no rise

Knock-down of UBE2V1 (ubiquitin conjugating enzyme E2 V1) [SID160718548] gave: total luciferase, z-score 0.564; inactive. Silencing of UBE2V1 (ubiquitin conjugating enzyme E2 V1) [SID160718551] resulted in: total luciferase, z-score 2.75; inactive. Silencing of UBE2V1 (ubiquitin conjugating enzyme E2 V1) [SID160731868] came out at: total luciferase, z-score 1.38; inactive. Against RIBC1 (RIB43A domain with coiled-coils 1) [SID160759685] the deposit lists total luciferase, z-score -0.244; inactive. RIBC1 (RIB43A domain with coiled-coils 1) [SID160759686] gave total luciferase, z-score -1.68; inactive. For RIBC1 (RIB43A domain with coiled-coils 1) [SID160759687] the deposit lists total luciferase, z-score 0.0643; inactive.

Depletion of C9orf153 (chromosome 9 open reading frame 153) [SID160766275] gave: total luciferase, z-score 0.434; inactive. After knock-down of C9orf153 (chromosome 9 open reading frame 153) [SID160766276], the record shows total luciferase, z-score -0.744; inactive. With knock-down of C9orf153 (chromosome 9 open reading frame 153) [SID160766277] the results were total luciferase, z-score 0.892; inactive. PIGK (phosphatidylinositol glycan anchor biosynthesis class K) [SID160724195] scored total luciferase, z-score 1.05; inactive. Knock-down of PIGK (phosphatidylinositol glycan anchor biosynthesis class K) [SID160724202] came out at: total luciferase, z-score -1.29; inactive. Depletion of PIGK (phosphatidylinositol glycan anchor biosynthesis class K) [SID160724209] resulted in: total luciferase, z-score -0.0542; inactive.

PDXK (pyridoxal kinase) [SID160720351] scored total luciferase, z-score 1.79; inactive. Knock-down of PDXK (pyridoxal kinase) [SID160720352] resulted in: total luciferase, z-score -0.931; inactive. With knock-down of PDXK (pyridoxal kinase) [SID160720353] the results were total luciferase, z-score -1.39; inactive. Depletion of CCM2 (CCM2 scaffold protein) [SID160751238] resulted in: total luciferase, z-score -0.384; inactive. After knock-down of CCM2 (CCM2 scaffold protein) [SID160751239], the screen gave total luciferase, z-score -1.11; inactive. For CCM2 (CCM2 scaffold protein) [SID160751240] the deposit lists total luciferase, z-score 1.84; inactive.

Silencing of DEFB128 (defensin beta 128) [SID160761981] gave: total luciferase, z-score 1.72; inactive. For DEFB128 (defensin beta 128) [SID160761982], the values are total luciferase, z-score -2.59; inactive. Knock-down of DEFB128 (defensin beta 128) [SID160761983] gave: total luciferase, z-score -0.595; inactive.
